This note sets out measurements from doi:10.1101/2021.09.02.458734.

No constants are given. Whether binding was seen depends on the method and setting. Binding seen in cells or lysates may run through a third protein. Some results given as binding are weak or reduced against the parent protein; the word gives no strength.

The target in the experiment is T1, integrin-β6 (mouse (endogenous in mouse heart)) (UniProt Q9Z0T9).
T1 sequence: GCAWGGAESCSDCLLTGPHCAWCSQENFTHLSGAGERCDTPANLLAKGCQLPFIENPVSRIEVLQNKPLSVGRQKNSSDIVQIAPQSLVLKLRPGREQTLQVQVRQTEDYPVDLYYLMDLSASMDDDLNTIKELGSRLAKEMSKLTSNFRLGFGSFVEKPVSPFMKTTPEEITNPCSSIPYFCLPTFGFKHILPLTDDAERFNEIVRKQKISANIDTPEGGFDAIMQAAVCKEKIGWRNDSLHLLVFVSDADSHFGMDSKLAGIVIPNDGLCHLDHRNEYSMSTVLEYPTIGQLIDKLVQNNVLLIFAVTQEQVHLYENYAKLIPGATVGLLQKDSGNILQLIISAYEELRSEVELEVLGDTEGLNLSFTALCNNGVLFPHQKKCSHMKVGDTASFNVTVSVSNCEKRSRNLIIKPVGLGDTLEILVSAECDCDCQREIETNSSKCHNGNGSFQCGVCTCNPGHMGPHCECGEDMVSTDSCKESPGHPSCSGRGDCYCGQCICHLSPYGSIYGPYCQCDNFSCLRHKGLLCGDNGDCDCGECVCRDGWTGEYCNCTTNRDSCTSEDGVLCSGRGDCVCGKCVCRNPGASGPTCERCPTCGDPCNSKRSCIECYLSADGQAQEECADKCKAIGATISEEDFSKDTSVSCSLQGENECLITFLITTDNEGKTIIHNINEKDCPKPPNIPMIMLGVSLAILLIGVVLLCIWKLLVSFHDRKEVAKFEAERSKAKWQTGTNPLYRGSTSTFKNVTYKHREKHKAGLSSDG
Kind of experiment: co-IP.

B1: desmoglein-2 (DSG2), wild type, endogenous (protein, UniProt O55111 55-1122)
chain: AWITAPVALREGEDLSRKNPIAKIHSDLAEEKGIKITYKYTGKGITEPPFGIFVFDRNTGELNITSILDREETPYFLLTGYALDSRGNNLEKPLELRIKVLDINDNEPVFTQEVFVGSIEELSAAHTLVMKITATDADDPETLNAKVSYRIVSQEPANSHMFYLNKDTGEIYTTSFTLDREEHSSYSLTVEARDGNGQITDKPVQQAQVQIRILDVNDNIPVVENKMYEGTVEENQVNVEVMRIKVTDADEVGSDNWLANFTFASGNEGGYFHIETDTQTNEGIVTLVKEVDYEEMKKLDLSIIVTNKAAFHKSILSKYKATPIPITVKVKNVVEGIHFKSSVVSFRASEAMDRSSLSRSIGNFQVFDEDTGQAAKVTYVKVQDTDNWVSVDSVTSEIKLVKIPDFESRYVQNGTYTAKVVAISKEHPQKTITGTIVITVEDVNDNCPVLVDSVRSVCEDEPYVNVTAEDLDGAQNSAPFSFSIIDQPPGTAQKWKITHQESTSVLLQQSERKRGRSEIPFLISDSQGFSCPERQVLQLTVCECLKGGGCVAAQYDNYVGLGPAAIALMILALLLLLLVPLLLLICHCGGGAKGFTPIPGTIEMLHPWNNEGAPPEDKVVPSLLVADHAESSAVRGGVGGAMLKEGMMKGSSSASVTKGQHELSEVDGRWEEHRSLLTAGATHHVRTAGTIAANEAVRTRATGSSRDMSGARGAVAVNEEFLRSYFTEKAASYNGEDDLHMAKDCLLVYSQEDTASLRGSVGCCSFIEGELDDLFLDDLGLKFKTLAEVCLGRKIDLDVDIEQRQKPVREASVSAASGSHYEQAVTSSESAYSSNTGFPAPKPLHEVHTEKVTQEIVTESSVSSRQSQKVVPPPDPVASGNIIVTETSYAKGSAVPPSTVLLAPRQPQSLIVTERVYAPTSTLVDQHYANEEKVLVTERVIQPNGGIPKPLEVTQHLKDAQYVMVRERESILAPSSGVQPTLAMPSVAAGGQNVTVTERILTPASTLQSSYQIPSETSITARNTVLSSVGSIGPLPNLDLEESDRPNSTITTSSTRVTKHSTMQHSYS
In the case of B1, the binding entry is recorded as “binds”.
